The record followed here is doi:10.1101/2025.07.08.663624.

Amino acid sequences for entries named in this document (tags omitted). A change or cut given only in a name is not applied to a line headed by its entry.
UniProt G0S5M5: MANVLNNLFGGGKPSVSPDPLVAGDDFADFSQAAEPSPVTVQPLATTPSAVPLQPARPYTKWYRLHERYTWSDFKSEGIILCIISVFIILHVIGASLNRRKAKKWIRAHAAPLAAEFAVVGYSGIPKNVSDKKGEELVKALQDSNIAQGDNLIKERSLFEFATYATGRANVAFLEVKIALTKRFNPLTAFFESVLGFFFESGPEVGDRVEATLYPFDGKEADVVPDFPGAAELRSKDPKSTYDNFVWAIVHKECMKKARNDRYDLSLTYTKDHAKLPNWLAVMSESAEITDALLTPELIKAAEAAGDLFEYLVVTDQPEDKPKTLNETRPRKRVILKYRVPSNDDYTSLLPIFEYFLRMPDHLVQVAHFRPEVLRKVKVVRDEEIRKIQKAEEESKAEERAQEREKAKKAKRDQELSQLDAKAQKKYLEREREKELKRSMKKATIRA

Where two headings read alike, the source gives them in different places. No constants are given. Whether binding was seen depends on the method and setting. In cells and extracts the contact can be indirect. A yes stands for co-enrichment or nearness to the bait. Other partners may have been found.

Assay [1] addresses Chaetomium thermophilum SND3 with a C-terminal TwinStrep tag (Chaetomium thermophilum) (UniProt G0RYQ7). The assay is described as follows: affinity purification with mass spectrometry + SEC.
Assay [2] concerns the target Chaetomium thermophilum CCDC47 with a FLAG tag (Chaetomium thermophilum) (UniProt G0S5M5). The assay is described as follows: affinity purification with mass spectrometry.
Assay [3] shares this target. Briefly: affinity purification with mass spectrometry. This is another data set of the same source.

“Chaetomium thermophilum CCDC47 (untagged, endogenous) (from UniProt G0S5M5)”: in assay [1], the binding result was “binds”.

Take “Chaetomium thermophilum SND3 with a C-terminal TwinStrep tag (from UniProt G0RYQ7)”: the binding entry in assay [2] and in assay [3] was “binds” throughout.
